Source: the supplement of paper PMC6078165

Test system: Hs578T
Experiment: relative JC-1 red fluorescence (viability) vs pre-drug, coculture with fibroblast (fraction); higher = more viable cancer cells
Method: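 JC-1 labelled TNBC cells cocultured 1:1 (1,500 cells each) with CellTrace Violet stained primary or stromal fibroblasts in 384-well plates in FluoroBrite medium, treated with one of 42 anticancer drugs at 0.1, 1, 10 or 100 uM. JC-1 red fluorescence (mitochondrial integrity in cancer cells only) was read by plate reader every 8 h for 72 h. Values are normalised to each well's pre-drug value. The stock of one drug was tenfold lower, so its dose labels may be too high.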

CC[C@]1(O)C[C@H]2CN(CCc3c([nH]c4ccccc34)[C@@](C(=O)OC)(c3cc4c(cc3OC)N(C=O)[C@H]3[C@@](O)(C(=O)OC)[C@H](OC(C)=O)[C@]5(CC)C=CCN6CC[C@]43[C@@H]65)C2)C1 [Vincristine]
relative JC-1 red fluorescence
Conditions | 8 h | 16 h | 24 h | 32 h | 40 h | 48 h | 56 h | 64 h | 72 h
10 µM | 0.888 | 0.83 | 0.782 | 0.7238 | 0.646 | 0.619 | 0.608 | 0.583 | 0.602
100 µM | 0.9302 | 0.872 | 0.849 | 0.81 | 0.748 | 0.724 | 0.709 | 0.683 | 0.683

relative JC-1 red fluorescence
Conditions | 8 h | 16 h | 24 h | 32 h | 40 h | 48 h | 56 h | 64 h | 72 h
10 µM, coculture fibroblast: C12385 | 0.843 | 0.807 | 0.7893 | 0.7105 | 0.639 | 0.603 | 0.567 | 0.551 | 0.543
10 µM, coculture fibroblast: H6013 | 0.8713 | 0.8408 | 0.807 | 0.763 | 0.713 | 0.702 | 0.677 | 0.672 | 0.645
10 µM, coculture fibroblast: H6019 | 0.811 | 0.7436 | 0.728 | 0.66 | 0.627 | 0.605 | 0.593 | 0.592 | 0.588
10 µM, coculture fibroblast: H6076 | 0.926 | 0.896 | 0.869 | 0.8311 | 0.742 | 0.726 | 0.702 | 0.703 | 0.713
10 µM, coculture fibroblast: H6231 | 0.936 | 0.832 | 0.777 | 0.731 | 0.6588 | 0.6378 | 0.6029 | 0.584 | 0.569
10 µM, coculture fibroblast: HADF | 0.8943 | 0.8588 | 0.803 | 0.747 | 0.693 | 0.657 | 0.612 | 0.598 | 0.574
10 µM, coculture fibroblast: HCFa | 0.8545 | 0.815 | 0.78 | 0.724 | 0.679 | 0.666 | 0.655 | 0.656 | 0.649
10 µM, coculture fibroblast: HCPF | 0.911 | 0.87 | 0.832 | 0.783 | 0.698 | 0.667 | 0.641 | 0.603 | 0.585
10 µM, coculture fibroblast: HHSteC | 0.884 | 0.8494 | 0.796 | 0.744 | 0.693 | 0.666 | 0.644 | 0.632 | 0.612
10 µM, coculture fibroblast: HMF | 0.954 | 0.926 | 0.893 | 0.854 | 0.752 | 0.705 | 0.65 | 0.626 | 0.607
10 µM, coculture fibroblast: HPFa | 0.92 | 0.87 | 0.828 | 0.757 | 0.714 | 0.689 | 0.664 | 0.662 | 0.639
10 µM, coculture fibroblast: HUF | 0.8787 | 0.775 | 0.743 | 0.643 | 0.562 | 0.519 | 0.482 | 0.476 | 0.468
10 µM, coculture fibroblast: Hs27A | 0.95 | 0.86529 | 0.825 | 0.7684 | 0.7113 | 0.7009 | 0.673 | 0.671 | 0.636
10 µM, coculture fibroblast: Hs343T | 0.9407 | 0.882 | 0.8266 | 0.794 | 0.679 | 0.633 | 0.57 | 0.542 | 0.53
10 µM, coculture fibroblast: WS1 | 0.833 | 0.766 | 0.721 | 0.6133 | 0.5311 | 0.5133 | 0.47 | 0.455 | 0.448
100 µM, coculture fibroblast: C12385 | 0.829 | 0.776 | 0.733 | 0.67 | 0.626 | 0.598 | 0.557 | 0.534 | 0.52
100 µM, coculture fibroblast: H6013 | 0.9617 | 0.974 | 0.961 | 0.938 | 0.882 | 0.857 | 0.835 | 0.84 | 0.819
100 µM, coculture fibroblast: H6019 | 0.811 | 0.78 | 0.7826 | 0.7371 | 0.712 | 0.696 | 0.675 | 0.663 | 0.661
100 µM, coculture fibroblast: H6076 | 0.954 | 0.933 | 0.931 | 0.892 | 0.841 | 0.831 | 0.797 | 0.79 | 0.794
100 µM, coculture fibroblast: H6231 | 0.886 | 0.839 | 0.809 | 0.786 | 0.726 | 0.7018 | 0.6775 | 0.648 | 0.6272
100 µM, coculture fibroblast: HADF | 0.88 | 0.87 | 0.943 | 0.932 | 0.884 | 0.88 | 0.8519 | 0.81935 | 0.779
100 µM, coculture fibroblast: HCFa | 0.938 | 0.865 | 0.91 | 0.91 | 0.854 | 0.8755 | 0.848 | 0.849 | 0.824
100 µM, coculture fibroblast: HCPF | 0.929 | 0.905 | 0.886 | 0.832 | 0.802 | 0.793 | 0.781 | 0.75 | 0.727
100 µM, coculture fibroblast: HHSteC | 0.969 | 0.981 | 0.958 | 0.906 | 0.837 | 0.826 | 0.7971 | 0.7742 | 0.735
100 µM, coculture fibroblast: HMF | 0.928 | 0.888 | 0.8671 | 0.844 | 0.775 | 0.745 | 0.7128 | 0.703 | 0.69
100 µM, coculture fibroblast: HPFa | 0.953 | 0.926 | 0.8795 | 0.835 | 0.782 | 0.753 | 0.721 | 0.7 | 0.641
100 µM, coculture fibroblast: HUF | 0.912 | 0.87 | 0.849 | 0.792 | 0.743 | 0.699 | 0.663 | 0.654 | 0.635
100 µM, coculture fibroblast: Hs27A | 0.945 | 0.96 | 0.9393 | 0.927 | 0.87 | 0.885 | 0.872 | 0.872 | 0.834
100 µM, coculture fibroblast: Hs343T | 0.9676 | 0.897 | 0.8741 | 0.858 | 0.766 | 0.751 | 0.698 | 0.685 | 0.673
100 µM, coculture fibroblast: WS1 | 0.814 | 0.775 | 0.69 | 0.605 | 0.547 | 0.528 | 0.484 | 0.472 | 0.467

Values are relative to the signal before dosing, not to a vehicle control; the signal also falls without drug.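 Labels refer to human fibroblasts, largely primary: uterine (C12385, HUF), lung (H6013), bone (Hs27A), adrenal (HADF), skin (WS1), plus mammary HMF and breast cancer-associated Hs343T. Cancer lines are basal-like or mesenchymal-like triple-negative breast cancer. The paper counts as hits responses shifting over 3x the replicate standard deviation. The tissue of the other fibroblasts is not given here.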
